In patent US20150196612A1, “Anti-enterovirus 71 steroidal saponins and their preparation” (Shanghai University of Traditional Chinese Medicine, priority 2014, published 2015):
At least one structure is not confirmed: it was looked up by name or label, or the drawing left a doubt. Some results were stated once for a whole list of compounds, not compound by compound.

Experiments:
[1] = tested on: Human immunodeficiency virus I (HIV-1); conditions: cited from earlier work
[2] = cytotoxicity (CC50) of steroidal saponins; conditions: read-out: CC50 (50% cytotoxic concentration); FIG. 6

## O=c1c2cc(O)c(O)cc2oc2cc(O)c([C@@H]3O[C@H](CO)[C@@H](O)[C@H](O)[C@H]3O)c(O)c12 [compound 1, mangiferin]
[1]; at non-cytotoxic concentrations, read-out: 50% effective concentration (EC50), HIV-1 induced syncytium formation
  EC50: 16.9 µM
[1]
  therapeutic index (TI): above 140

## C[C@H]1CC[C@@]2(OC1)O[C@H]1C[C@H]3[C@@H]4CC[C@@H]5C[C@@H](O[C@@H]6O[C@H](CO)[C@@H](O)[C@H](O)[C@@H]6O[C@@H]6O[C@H](CO)[C@@H](O)[C@H](O)[C@H]6O)CC[C@]5(C)[C@H]4CC[C@]3(C)[C@H]1[C@@H]2C [compound 6, timosaponin A-IV]
[2]
  CC50: < 25 µM

## C[C@@H]1CO[C@@]2(O[C@H]3C[C@H]4[C@@H]5CC[C@@H]6C[C@@H](O[C@@H]7O[C@H](CO)[C@H](O)[C@H](O)[C@H]7O[C@@H]7O[C@H](CO)[C@@H](O)[C@H](O)[C@H]7O)CC[C@]6(C)[C@H]5CC[C@]4(C)[C@H]3[C@@H]2C)[C@@H](O)C1 [compound 5, timosaponin G]
[2]
  CC50: < 25 µM
